The source of these data is article PMC10163288.

The chains are these.
B1: il2ra_site2_3nfp_normal_mot_HHH_b2_06150_000000217_0001_39_53_H_._HHH_b2_05784_af2_0001_0000100004_0000001_0 (protein)
chain: SSSSDRERVEELLERAEEKFERGDEEEVRRLLAEATKLAYENRDSELFFLVAEVLFRLAQNSSSS
B2: il2ra_site2_3nfp_normal_mot_HHH_b1_05437_000000005_0001_40_57_H_._HHH_b1_08057_af2_0001_0000100005_0000001_0 (protein)
chain: SSSSSDELEELLEQIEELLKEGDKEEAKKLLRRVTHLAYERRDFEIFYEVAELLYLLEKLSSSSS
B3: il2ra_site1_2b5i_sap_11_mot_HHH_b2_04463_af2_000000056_0001_43_55_H_._HHH_b1_05331_af2_0001_0000300038_0000001_0_0001 (protein)
chain: SSSSDRELTRAAVRIVWRLMWELNLSREEAQLLNRLAAELVDRGVSPEELEEILREYAEEISSSS
B4: il2ra_site2_2erj_sap_17_mot_HHH_b2_02941_af2_000000183_0001_1_17_H_._a163ca1559da7b4b86abf89ce1a5d894_0001_0001_0000600028_0000001_0_0001_af2pred_0001_1_af2pred … (protein)
chain: SSSSDEEEIRRRVKELLEEAEEIPNLREVLRLLQEALKLAAKLDDPELLKLIKEVFEELSSSSSS
B5: il2ra_site1_3nfp_sap_16_mot_HHH_b1_01231_af2_000000170_0001_1_16_H_._b696cedac0eb12313cfa5cdca89df678_0001_0001_0000700027_0000001_0_0001_af2pred_0001_af2pred_1 … (protein)
chain: GAEEALELLKKVAEELNDPALKFAAKVLEKELRENPEAAERALRLFVERSGNPVLEEVLELLESD
B6: il2ra_site1_1z92_sap_18_mot_HHH_b2_01254_af2_000000148_0001_42_56_H_._HHH_b2_01787_0001_0000100001_0000001_0_0001 (protein)
chain: SVDEELEELLKRGNAEEAERFLRELVEKEGDPELKAALRDLERSQEFGIPPRSVIQAVVEALKRF
B7: il2ra_site2_2erj_normal_mot_HHH_b1_02757_000000121_0001_41_57_H_._HHH_b1_00835_0001_0000300010_0000001_0_af2pred_0001_1_af2pred_swapped (protein)
chain: SSSSSDEEEFRERVRELLEEAEHIPDPREALKVLQEASRLALKADDPELIEEVLEAARRSSSSSS
B8: il2ra_site1_3nfp_normal_mot_HHH_b2_02066_af2_000000034_0001_1_16_H_._56b2e862c5d7020fcb9d25388f5aedda_0001_0001_0000300045_0000001_0_af2pred_0001_af2pred (protein)
chain: STAERFLERAKEDGSLKAVSSVAKAVAKLLNDPELEERIRELEEKAKENPEVQEELIRLAEELLK
B9: il2ra_site1_2b5i_normal_mot_HHH_b2_04461_000000219_0001_1_19_H_._HHH_b1_00060_0001_0000100002_0000001_0_af2pred_dldesign_0_af2pred (protein)
chain: SSSSSPEKEKALKLFLEANELRKAGKEEEAIKLLEEALKLAEKGKAPLLAKIIRSALEDLKSSSS
B10: il2ra_site2_3nfp_normal_mot_HHH_b1_08081_af2_000000020_0001_38_50_H_._HHH_b1_01332_0001_0001100031_0000001_1 (protein)
chain: SSSSDDVERYLRAALLLARRAIEEGDREFAERILKLIRKLAEDARDEEALREAERLLEEVGSSSS
B11: il2ra_site2_2erj_sap_23_mot_HHH_b1_05749_af2_000000058_0001_23_39_H_._7397bc064fdf6bae2cd3d62d454bf56a_0001_1_0001_0000200023_0000001_0_0001_af2pred_0001_1_af2p … (protein)
chain: SSSSSSELREILRRVLELLSRLLEVSPEEAEKLLEEAKELAEESNSPLLKKVVERARKKLSSSSS
B12: il2ra_site2_2erj_sap_18_mot_HHH_b1_02968_000000142_0001_22_39_H_._HHH_b2_06416_0001_0000200008_0000001_0_0001_af2pred_0001_1_af2pred_swapped (protein)
chain: SSSSSELEEILRELVEELVEEFNLSEEQREHLELAARSALEAGADEELAEAFLRLIAEKLHSSSS
B13: il2ra_site1_2b5i_sap_12_mot_HHH_b2_04463_af2_000000056_0001_43_55_H_._HHH_b2_02114_af2_0001_0000100003_0000001_1_0001 (protein)
chain: SSSSNEAAREARELMEKLDEAFRRGDEELLEELLEEIEEFLKEQDDKFLRLAMEQVREELSSSSS
B14: il2ra_site1_1z92_sap_12_mot_HHH_b1_00561_af2_000000294_0001_1_19_H_._HHH_b2_00458_af2_0001_0000100010_0000001_0_0001_af2pred_0001_af2pred_1_swapped (protein)
chain: SSSSDKERSLRYAVELAVKLAGLSEEQQKELEELVEELIKRGVDFLEALRIIDERAAELASSSSS
B15: il2ra_site1_3nfp_normal_mot_1cd86ef9f1587ae5d14d35bbbd8e7f1d_0001_1_000000087_0001_34_49_H_._HHH_b1_06064_0001_0000400037_0000001_0_af2pred_0001_af2pred_1_swapp … (protein)
chain: SSSSSDEEASELNERILRLLFEGNDEEAQELIERLEELAEELNDPKLRKFVELLQRELELLSSSS
B16: il2ra_site2_2erj_sap_12_mot_4428453eb85d3cbdb794fa6b82d21c19_0001_000000044_0001_14_30_H_._HHH_b2_01893_0001_0000400017_0000001_0_0001 (protein)
chain: SSSSSDTKEQVEELYEEIEKITDLHELFRLAVEITARAQESNDEEAIRLVKELLELLHEHSSSSS
B17: il2ra_site1_2b5i_sap_17_mot_HHH_b1_03355_af2_000000029_0001_41_57_H_._HHH_b1_08417_af2_0001_0000300024_0000001_1_0001 (protein)
chain: SSSSDEEIERIQELFAQASRLWRKGNPEEAREVLEEALELAEEAGDPRAARELKHMLERASSSSS
B18: il2ra_site1_3nfp_normal_mot_HHH_b2_01946_000000116_0001_24_41_H_._HHH_b2_03085_af2_0001_0000200032_0000001_0 (protein)
chain: SSSSSEIEEEVKELLEEIERLLREGDWREAAKIAEKVIRLAARGNDEEADRLIHEFLKRLSSSSS

The other results are listed elsewhere or left out.

The test addresses il2ra, P01589. Briefly: yeast display titration.
Consider B1, for which the “apparent Kd” value was “inactive: no binding seen”.

Regarding B2, the “apparent Kd” value is “inactive: no binding seen”.

Consider B3, for which the “apparent Kd” value was “inactive: no binding seen”.

Turning to B4, the “apparent Kd” value is “inactive: no binding seen”.

Consider B5, for which the “apparent Kd” value was “inactive: no binding seen”.

With B6, the “apparent Kd” value is “inactive: no binding seen”.

Consider B7, for which the “apparent Kd” value is “inactive: no binding seen”.

Consider B8, for which the “apparent Kd” value was “inactive: no binding seen”.

Take B9: the “apparent Kd” value was “inactive: no binding seen”.

On to B10, for which the “apparent Kd” value was “inactive: no binding seen”.

For B11, the “apparent Kd” value is “inactive: no binding seen”.

Turning to B12, the “apparent Kd” value is “inactive: no binding seen”.

Consider B13, for which the “apparent Kd” value was “inactive: no binding seen”.

For B14, the “apparent Kd” value was “inactive: no binding seen”.

Regarding B15, the “apparent Kd” value is “inactive: no binding seen”.

Consider B16, for which the “apparent Kd” value is “inactive: no binding seen”.

As for B17, the “apparent Kd” value was “inactive: no binding seen”.

Take B18: the “apparent Kd” value was “inactive: no binding seen”.
